# Laboratory results reported in PubChem BioAssay AID1487 (National Center for Advancing Translational Sciences (NCATS), 2009).
# Some of the results follow. These are further read-outs of the screen, such as a control signal, another cell line or another target. No call is given for them. Compounds called inactive in the main read-out are mostly missing here. Potencies come from curve fits of mixed quality, noted in brackets.
# Assay: qHTS Assay for Modulators of Lamin A Splicing
# Conditions: HeLa LMNA splicing GFP/RFP minigene ratio, 48 h
# How it was run: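 Read-out is the ratio of GFP to DsRed2 object intensity, acquired by 488 nm laser-scanning cytometry on HeLa lamin A-EGFP minigene reporter cells. Compound incubation 48 hrs at 37 °C in Opti-MEM with 2% FBS; DMSO 0.5% final.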
# [1] = measured here: RFP viability control channel
# [2] = measured here: GFP splicing reporter channel
Compound,AC50 [1],AC50 [2]
CCOC(=O)c1sc(NC(=O)c2ccc(S(=O)(=O)N(C)C)cc2)cc1C,"25.1 µM [rising, single point]",
O=C(Cn1cc(C(=O)c2cccs2)c2ccccc21)NC1CCCCC1,"20 µM [rising, single point]",
COc1ccc(CCNc2nc(-c3ccc(NC(C)=O)cc3)cs2)cc1OC,"35.5 µM [rising, single point]","35.5 µM [rising, single point]"
NC(N)=NS(=O)(=O)c1ccc(NC(=S)NC(=O)/C=C/c2cccs2)cc1,"6.31 µM [falling, partial curve, poor fit]",
COc1cc2c(cc1NC(=O)COC(=O)[C@@H](NS(=O)(=O)c1ccccc1)C(C)C)oc1ccccc12,"35.5 µM [rising, single point]","20 µM [rising, partial curve]"
Cc1ccc(S(=O)(=O)N/N=C/c2c[nH]c3ccccc23)cc1,,"1.12 µM [falling, partial curve, poor fit]"
CC(C)Oc1ccc(C(=O)N2CCCc3ccccc32)cc1,"10 µM [rising, single point]","11.2 µM [rising, single point]"
CCOC(=O)/C(=C/c1c(C)n(C)c2ccc([N+](=O)[O-])cc12)C(C)=O,"11.2 µM [rising, partial curve]","8.91 µM [rising, partial curve]"
O=C(/C=C\c1ccc2c(c1)OCO2)NC1(C(=O)Nc2ccc3c(c2)OCO3)CCCCC1,,"35.5 µM [rising, single point]"
Cc1onc(-c2ccccc2)c1C(=O)Nc1sc2c(c1C#N)CCC2,"35.5 µM [rising, single point]",
COc1ccccc1-c1nnc(SCC(=O)c2ccc(C3CCCCC3)cc2)n1Cc1ccco1,,"35.5 µM [falling, single point]"
c1ccc2c(c1)COC(CN1CCCCC1)OC2,"0.447 µM [falling, full curve, poor fit]","0.00631 µM [falling, full curve]"
OCCN1CCN(c2ncnc3c2sc2nc(N4CCOCC4)c4c(c23)CCC4)CC1,"31.6 µM [rising, single point]",
CCN(CC)S(=O)(=O)c1cc(NC(=O)C(C)N(C)CC(=O)Nc2c(C)cccc2C)ccc1C (centres undefined),"8.91 µM [rising, partial curve]",
O=C(Nc1ccc(Cl)c(Cl)c1)N1CC=CCC1,"22.4 µM [rising, single point]","15.8 µM [rising, single point]"
CC(C)CCNc1nc(N2CCCC2)c2c(c1C#N)CCN(C)C2,"35.5 µM [rising, single point]",
Cc1cc(-c2nn(-c3ccccc3F)cc2CN2CCC(O)CC2)c(C)s1,"0.02 µM [falling, full curve, poor fit]",
Nc1ccc2c(c1)C(=O)C(=O)c1ccccc1-2,"3.55 µM [falling, full curve]","3.55 µM [falling, full curve]"
NCc1c(O)ccc2ccccc12,,"0.112 µM [rising, single point]"
COc1ccc(-n2c(C)cc(C(=O)CN3C(=O)NC4(CCc5ccccc54)C3=O)c2C)cc1 (centres undefined),"22.4 µM [rising, single point]","35.5 µM [rising, single point]"
O=C(/C=C/c1ccc(Br)cc1)NCc1cccs1,"22.4 µM [rising, single point]","22.4 µM [rising, single point]"
COc1cccc(C2/C(=C(/O)c3cnn(-c4ccccc4)c3C)C(=O)C(=O)N2CCN(C)C)c1OC (centres undefined),"10 µM [rising, partial curve]",
CC1(C)CC(=O)C2=C(C1)Nc1[nH]n(-c3ccccc3)c(=O)c1C2c1ccc2c(c1)OCO2 (centres undefined),"35.5 µM [rising, single point]",
CCn1c(COc2c(C)cccc2C)nnc1SCc1nc2ccccc2c(=O)[nH]1,"10 µM [falling, partial curve, poor fit]","28.2 µM [falling, single point]"
Cc1ccc(S(=O)(=O)Nc2ccc(NC(=O)c3cccs3)cc2)cc1,"3.55 µM [rising, partial curve]",
Cc1ccc(N(CC(=O)NCc2ccc(F)cc2)C(=O)c2csnn2)cc1C,"0.0355 µM [rising, full curve, poor fit]",
CCCc1nc2ccccc2c(=O)n1/N=C/c1ccc(O)c(O)c1,"35.5 µM [rising, single point]",
CCOC(=O)N/N=C/c1cc(C)n(-c2cccc3ccccc23)c1C,"14.1 µM [rising, partial curve]","10 µM [rising, partial curve, poor fit]"

Compound,AC50 [1],AC50 [2]
COc1ccc(CN2CCN(CCc3ccccc3)C(CCO)C2)cc1Cn1cncn1 (centres undefined),"1.26 µM [falling, partial curve]","2.24 µM [falling, single point]"
COc1ccccc1-c1nnc(SC(C(=O)c2c[nH]c3ccccc23)c2ccccc2)n1C (centres undefined),"0.0501 µM [rising, full curve]",
CCOC(=O)/C=C/C(=O)Nc1ccccc1C(=O)NC1CCCCC1,"31.6 µM [rising, single point]",
O=C(CCNS(=O)(=O)c1cccc2nsnc12)NCc1ccc(F)cc1,,"0.00398 µM [rising, full curve, poor fit]"
CCCOc1cccc(C(=O)NC(=S)Nc2cccc(C(F)(F)F)c2)c1,"35.5 µM [rising, single point]","22.4 µM [rising, single point]"
COc1ccc(OC)c(NC(=O)NNC(=O)CCCOc2ccc(Cl)cc2C)c1,"0.00316 µM [falling, full curve, poor fit]","0.794 µM [falling, full curve, poor fit]"
O=C(Nc1cccc(OCc2cc(=O)n3ccccc3n2)c1)Nc1cccc(C(F)(F)F)c1,,"0.447 µM [rising, single point]"
O=C(CS(=O)(=O)c1cn(Cc2cccc(F)c2)c2ccccc12)N1CCOCC1,"15.8 µM [rising, single point]","0.708 µM [rising, partial curve]"
CC(=O)Nc1ccc(SCC(=O)c2cc(C)n(-c3ccccc3)c2C)cc1,"14.1 µM [rising, partial curve]",
CCOc1ccccc1CNC(=O)c1oc2c(c1C)-c1nn(Cc3cccc(Cl)c3)cc1CC2,"15.8 µM [falling, partial curve]","11.2 µM [falling, partial curve]"
Cc1ccc2c(=O)c(C(=O)c3ccc(Cl)cc3)cn(CC(=O)Nc3ccc4c(c3)OCCO4)c2n1,,"0.00447 µM [rising, full curve, poor fit]"
CC(C)(C)c1ccc(NC(=O)N2CCCN(c3ccc([N+](=O)[O-])cn3)CC2)cc1,"0.02 µM [falling, full curve, poor fit]",
CC(C)CNC(=O)CN1C(=O)NC(Cc2c[nH]c3ccccc23)C1=O (centres undefined),"0.0224 µM [rising, full curve, poor fit]","2.24 µM [rising, partial curve, poor fit]"
COC(=O)N/N=C/c1cn(CCCOc2ccccc2)c2ccccc12,"25.1 µM [rising, single point]","14.1 µM [rising, single point]"
O=C(O)C(CC1CCCCC1)N1CCS(=O)(=O)CC1 (centres undefined),,"0.0562 µM [rising, full curve, poor fit]"
Cn1c(C(=O)NCc2ccccc2)cc2oc3ccccc3c21,"12.6 µM [rising, partial curve]",
CCOC(=O)N1CCN(CC(O)COCc2ccc(OC)c(OC)c2)CC1 (centres undefined),"28.2 µM [rising, partial curve]",
O=C(CCC(=O)Nc1ccc(Br)cc1)N/N=C/c1cc([N+](=O)[O-])ccc1O,,"0.112 µM [falling, partial curve, poor fit]"
COc1ccc(NC(=S)NCC2CCN(c3ccc(OC)cc3)C2)cc1 (centres undefined),"15.8 µM [rising, single point]",
CCCCNC(=O)C1CCC(Cn2c(=O)c3sccc3n(CC(=O)Nc3ccccc3)c2=O)CC1 (centres undefined),"17.8 µM [falling, partial curve]","22.4 µM [falling, single point]"
O=C(NCc1ccco1)c1cnn2c1NC(c1ccc(Br)cc1)CC2C(F)(F)F (centres undefined),"15.8 µM [rising, partial curve, poor fit]",
O=C(NN=C1CCCCC1)c1ccccc1OCc1ccc(F)cc1,"3.98 µM [rising, partial curve]",
O=C(Nc1nccs1)c1ccc(S(=O)(=O)N2CCOCC2)cc1,,"0.0224 µM [rising, full curve, poor fit]"
O=Cc1ccc(-c2ccccc2C(=O)O)o1,"0.0316 µM [falling, full curve, poor fit]",
CC(=O)N(CC(O)CO)c1c(I)c(C(=O)NCC(O)CO)c(I)c(C(=O)NCC(O)CO)c1I (centres undefined),,"0.00316 µM [falling, full curve, poor fit]"
Cc1ccc(S(=O)(=O)N2CCc3ccccc3C2CN2C(=O)c3ccccc3C2=O)cc1 (centres undefined),"35.5 µM [rising, single point]",
CC1=C(C(=O)OC(C)C)C(c2cccc([N+](=O)[O-])c2)n2c(cc(=O)[nH]c2=S)N1 (centres undefined),"0.00316 µM [falling, full curve, poor fit]",

# Exported tab-delimited: 15 of the compounds above.
Compound	AC50 [1]	AC50 [2]
O=C(Cn1cc(C(=O)c2cccs2)c2ccccc21)NC1CCCCC1	20 µM [rising, single point]	
O=C(/C=C\c1ccc2c(c1)OCO2)NC1(C(=O)Nc2ccc3c(c2)OCO3)CCCCC1		35.5 µM [rising, single point]
CC(C)CCNc1nc(N2CCCC2)c2c(c1C#N)CCN(C)C2	35.5 µM [rising, single point]	
Nc1ccc2c(c1)C(=O)C(=O)c1ccccc1-2	3.55 µM [falling, full curve]	3.55 µM [falling, full curve]
O=C(/C=C/c1ccc(Br)cc1)NCc1cccs1	22.4 µM [rising, single point]	22.4 µM [rising, single point]
CC1(C)CC(=O)C2=C(C1)Nc1[nH]n(-c3ccccc3)c(=O)c1C2c1ccc2c(c1)OCO2 (centres undefined)	35.5 µM [rising, single point]	
Cc1ccc(N(CC(=O)NCc2ccc(F)cc2)C(=O)c2csnn2)cc1C	0.0355 µM [rising, full curve, poor fit]	
CCOC(=O)N/N=C/c1cc(C)n(-c2cccc3ccccc23)c1C	14.1 µM [rising, partial curve]	10 µM [rising, partial curve, poor fit]
COc1ccccc1-c1nnc(SC(C(=O)c2c[nH]c3ccccc23)c2ccccc2)n1C (centres undefined)	0.0501 µM [rising, full curve]	
CC(C)CNC(=O)CN1C(=O)NC(Cc2c[nH]c3ccccc23)C1=O (centres undefined)	0.0224 µM [rising, full curve, poor fit]	2.24 µM [rising, partial curve, poor fit]
O=C(O)C(CC1CCCCC1)N1CCS(=O)(=O)CC1 (centres undefined)		0.0562 µM [rising, full curve, poor fit]
Cn1c(C(=O)NCc2ccccc2)cc2oc3ccccc3c21	12.6 µM [rising, partial curve]	
O=C(Nc1nccs1)c1ccc(S(=O)(=O)N2CCOCC2)cc1		0.0224 µM [rising, full curve, poor fit]
O=Cc1ccc(-c2ccccc2C(=O)O)o1	0.0316 µM [falling, full curve, poor fit]	
Cc1ccc(S(=O)(=O)N2CCc3ccccc3C2CN2C(=O)c3ccccc3C2=O)cc1 (centres undefined)	35.5 µM [rising, single point]	
